{"source": "patent US20120040389A1", "about": "“METHOD FOR DEMONSTRATION OF A MOLECULAR EVENT IN A CELL BY MEANS OF FLUORESCENT MARKER PROTEINS” (Institut National de la Sante et de la Recherche Medicale …, priority 2003, published 2012)", "test_system": "Bax protein", "assay": "Bax activation: retention of GFP-Bax fluorescence after digitonin permeabilization, flow cytometry", "type": "cell-based, human", "procedure": "FIG. 11A-E represents the coupled measurement of Bax activation and the cell cycle. The clone 10 cells stably expressing the GFP-Bax fusion protein are treated with various drugs acting as pro-apoptotic agents and/or cytostatic agents. The measurement of Bax activation is carried out as described previously by evaluation of the retention of fluorescence after permeabilization with digitonin. In the permeabilization buffer, propidium iodide (0.4-0.8 mg/ml) was added and the cells were incubated for 30 minutes at 4° C. The distribution of the cells in the various phases of the cell cycle is read on the basis of their intensity of fluorescence in the red (PI). […] Moreover, it makes it possible to evaluate if Bax activation takes place in a preferential phase of the cell cycle.\nThe model implemented uses a clone designated “clone 10”. […]\nThe test is then based on the observation, under the fluorescence microscope or by flow cytometry, of the cells in which Bax is not activated and thus is distributed uniformly in the cytosol and of the cells in which Bax has been activated following an induction of apoptosis. […]\nThe cells are then resuspended in an intracellular saline solution in the presence of 50 μM of digitonin and then analyzed by flow cytometry and the fluorescence of the GFP is measured in channel FL1.", "data": [{"smiles": "CN[C@H]1CCc2cc(OC)c(OC)c(OC)c2-c2ccc(OC)c(=O)cc21", "note": "[colcemid]", "values": [{"measurement": "Bax activation in relation to the phase of the cell cycle", "result": "Bax activation in all phases of the cycle"}]}]}
